The whole screen tested about 390,000 compounds, of which about 910 (0.23%) were called active. The inconclusive results got no clear call from the source; some entries with a clear call stand among them for comparison. Calls follow the shape of the dose curve; as a rule, active = well fitted inhibition curve with a large enough effect; inconclusive = small, poorly fitted or top-dose-only effect; inactive = no such curve, though single readings can be large or run the other way. Where the call is inconclusive, the potency comes from a doubtful curve fit.
Biological target: Ubiquitin carboxyl-terminal hydrolase 1 (Homo sapiens) (UniProt O94782)
Experiment: Inhibitors of USP1/UAF1: Primary Screen; also: nearly all actives have a fitted effect of over 60% in size
Settings: recombinant USP1/UAF1, Ub-Rhodamine cleavage fluorescence; activity change, negative = inhibition: at 57.1 µM (top of the series)
Outline: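 High-throughput fluorogenic screen: 1nM USP1/UAF1 complex, Ub-Rho substrate 150nM final, 50mM HEPES pH 7.8 with 0.5mM EDTA, 0.1 mg/ml BSA, 1mM TCEP and 0.01% Tween-20.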
% is scaled to controls: 0 for no effect and ±100 for the full control effect; potency is read from the fitted curve at half-maximal effect.

The chains behind the UniProt entries cited, without tags or fusion partners. Where a name states a change or a piece, a line headed by the entry shows the natural chain unless it says otherwise.
UniProt O94782: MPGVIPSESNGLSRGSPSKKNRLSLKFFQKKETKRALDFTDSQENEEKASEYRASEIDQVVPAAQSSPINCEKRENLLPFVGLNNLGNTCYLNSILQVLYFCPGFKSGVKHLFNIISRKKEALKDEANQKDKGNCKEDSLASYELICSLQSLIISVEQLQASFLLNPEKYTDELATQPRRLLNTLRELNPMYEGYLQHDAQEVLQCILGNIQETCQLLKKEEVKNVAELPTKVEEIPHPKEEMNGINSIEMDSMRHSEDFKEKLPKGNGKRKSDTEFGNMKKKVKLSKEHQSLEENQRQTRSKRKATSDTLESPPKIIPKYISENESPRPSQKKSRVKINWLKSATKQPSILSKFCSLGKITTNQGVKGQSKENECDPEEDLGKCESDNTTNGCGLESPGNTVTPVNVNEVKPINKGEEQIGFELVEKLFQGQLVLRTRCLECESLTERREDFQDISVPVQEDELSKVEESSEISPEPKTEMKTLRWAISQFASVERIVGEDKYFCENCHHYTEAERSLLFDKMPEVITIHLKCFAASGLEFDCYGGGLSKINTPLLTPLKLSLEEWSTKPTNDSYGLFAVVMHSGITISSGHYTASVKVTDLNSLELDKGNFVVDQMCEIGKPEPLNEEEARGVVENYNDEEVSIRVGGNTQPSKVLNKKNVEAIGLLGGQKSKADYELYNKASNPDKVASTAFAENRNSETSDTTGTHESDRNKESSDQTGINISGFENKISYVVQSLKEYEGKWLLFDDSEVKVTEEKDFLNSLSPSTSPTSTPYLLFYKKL

SMILES | Potency | activity change, negative = inhibition
N#CC1(C#N)C(c2ccccc2)OC23CCCCC2C1(C#N)C(=N)O3 (stereo not given) | inconclusive: 39.8 µM [inhibitor, partial curve] | 
Cc1cnc(NS(=O)(=O)c2ccccc2)c(Br)c1 | inconclusive: 44.7 µM [inhibitor, single point] | 
CCCOCc1cc(CN2CCN(c3cccc(Cl)c3)CC2)c(O)c2ncccc12 | inconclusive: 5.62 µM [inhibitor, full curve, poor fit] | 
O=C(CCSCc1cccc(Cl)c1)NCCC1=CCCCC1 | inconclusive: 56.2 µM [inhibitor, partial curve, poor fit] | 
COc1ccc(CC(=O)Nc2ccc(-c3nc4ccccc4s3)cc2Cl)cc1OC | inconclusive: 35.5 µM [inhibitor, partial curve, poor fit] | 
c1ccc(C2(CN3CCNC[C@H]3Cc3cccc4ccccc34)CC2)cc1 | inconclusive: 44.7 µM [inhibitor, partial curve, poor fit] | 
Cc1cccc(CCNC(=O)Cn2ncc3c([nH]c4ccccc43)c2=O)c1 | inconclusive: 0.126 µM [inhibitor, full curve, poor fit] | 
COc1cc(/C=C2/C(=O)NN(c3ccc(F)cc3)C2=O)cc([N+](=O)[O-])c1O | inconclusive: 28.2 µM [inhibitor, partial curve] | 
N#C/C(=C/c1ccc(N2CCCCC2)o1)C(=O)Nc1ccc(Cl)cc1 | active: 28.2 µM | 
Cc1ccc(C(=O)C2CCN(CC(=O)N3CCN(c4ccc(F)cc4)CC3)CC2)cc1 | inactive | 
CCc1ccccc1NS(=O)(=O)c1ccc(-c2coc(C)n2)cc1 | inconclusive: 5.62 µM [inhibitor, single point] | 
Cc1n[nH]c(=O)c2c1nnn2Cc1ccccc1Cl | inconclusive: 1.26 µM [inhibitor, full curve, poor fit] | 
CC(C)c1nc2ccc(C(=O)NCc3ccc(F)cc3)cc2o1 | inconclusive: 7.94 µM [inhibitor, single point] | 
O=C(CN1CCCCCC1)Nc1ccc(S(=O)(=O)N2CCCCC2)cc1 | inconclusive: 15.8 µM [inhibitor, partial curve] | 
Cc1nn(C)c2c1c(-c1ccccc1)cc(=O)n2C(C)C(=O)NCCc1ccc(Cl)cc1 (stereo not given) | inconclusive: 22.4 µM [inhibitor, partial curve] | 
CCOc1ccc(N2CC(C(=O)Nc3ccc(S(=O)(=O)N4CCCC4)cc3)CC2=O)cc1 (stereo not given) | inconclusive: 0.355 µM [inhibitor, partial curve, poor fit] | 
COc1ccc(C(=O)c2oc3ccccc3c2NC(=O)COc2cccc(C)c2)cc1 | inactive | 
CCN(CC)CCNC(=O)c1ccc2c(c1)NC(=O)C(CS(=O)(=O)Cc1ccc(F)cc1Cl)N2 (stereo not given) | inconclusive: 44.7 µM [inhibitor, partial curve] | 
Cc1cc(C)c(/C=C/c2onc(C)c2S(=O)(=O)N2CCC(C(=O)NCC(C)c3ccccc3)CC2)c(C)c1 (stereo not given) | inactive | 
Cc1ccc(NC(=O)c2c(C)oc3ccc(O)c(CN4CCCCC4)c23)cc1 | inconclusive: 44.7 µM [inhibitor, partial curve] | 

SMILES | Potency | activity change, negative = inhibition
COc1ccccc1N1CCN(C(=O)c2nc(-c3ccc(C)cc3)n3c2CCCCC3)CC1 | inconclusive: 7.08 µM [inhibitor, single point] | 
Cc1ccc(S(=O)(=O)CCC(=O)Nc2nnc(-c3ccc(F)cc3)o2)cc1 | inactive | 
COC(=O)c1cncn1Cc1ccccc1 | inconclusive: 50.1 µM [inhibitor, partial curve, poor fit] | 
Cc1c(C(=O)O)sc2nc(-c3cccs3)cc(C(F)(F)F)c12 | inconclusive: 6.31 µM [inhibitor, single point] | 
O=C(/C=C/c1ccc([N+](=O)[O-])cc1)Nc1cccc(C(=O)Nc2ccccc2C(=O)O)c1 | inconclusive: 35.5 µM [inhibitor, partial curve] | 
O=C(NCCc1ccccc1)c1ccc2c(c1)N(Cc1ccccc1)C(=O)c1ccccc1S2=O (stereo not given) | inactive | 
COc1cccc(C(=O)NCCNC(=O)c2ccc(C)nc2)c1 | inconclusive: 50.1 µM [inhibitor, partial curve, poor fit] | 
CCC(CC)NC(=O)COc1ccc(OC)cc1C=O | inactive | 
COc1ccc(OC)c(/C=C2\SC(=S)N(C(C(=O)O)c3ccccc3)C2=O)c1 (stereo not given) | inconclusive: 44.7 µM [inhibitor, partial curve, poor fit] | 
Cn1cnc2c(=O)oc3ccc(S(=O)(=O)N4CCN(c5ccccc5)CC4)cc3c21 | inconclusive: 2.24 µM [inhibitor, partial curve] | 
Cc1ccc(NC(=O)COC(=O)Cn2cnc3c2c(=O)n(C)c(=O)n3C)cc1 |  | inconclusive: -1.62% [inhibitor]
Cc1ccc(C)c(NC(=O)CCCN2C(=O)COc3ccc(C)cc32)c1 | inconclusive: 0.251 µM [inhibitor, full curve, poor fit] | 
CCN(CC)S(=O)(=O)c1ccc2c(c1)c(=O)c(C(=O)N(C)Cc1ccccc1)cn2C | inconclusive: 15.8 µM [inhibitor, partial curve, poor fit] | 
COc1ccc(/C=C/C(=O)Nc2ccc3nc(N4CCC(C)CC4)cc(C)c3c2)cc1OC | inconclusive: 5.01 µM [inhibitor, full curve, poor fit] | 
Cc1ccc(C2=C(O)c3ccccc3C(=O)C2=O)cc1 | inactive | 
Cc1cc(C)cc(NC(=O)c2sc3nc(-c4ccccc4)cn3c2C)c1 | inactive | 
Cc1ccc(S(=O)(=O)c2nc(-c3ccco3)oc2SC(C)C)cc1 | inconclusive: 15.8 µM [inhibitor, partial curve] | 
CN(CCOc1ccccc1)CC(O)COc1ccccc1 (stereo not given) | inconclusive: 11.2 µM [inhibitor, partial curve] | 
CCOC(=O)c1ccc(Nc2ncnc3c2cnn3C)cc1 | inconclusive: 31.6 µM [inhibitor, single point] | 
Cc1noc(NS(=O)(=O)c2ccc(NC(=O)COc3ccc(Cl)cc3Cl)cc2)c1C | inconclusive: 31.6 µM [inhibitor, partial curve] | 

Quoted from the listing:
Entry for COc1cccc(C(=O)NCCNC(=O)c2ccc(C)nc2)c1 under Potency: inconclusive: 50.1 µM [inhibitor, partial curve, poor fit]
Entry for Cc1ccc(C)c(NC(=O)CCCN2C(=O)COc3ccc(C)cc32)c1 under Potency: inconclusive: 0.251 µM [inhibitor, full curve, poor fit]
Entry for Cc1ccc(C(=O)C2CCN(CC(=O)N3CCN(c4ccc(F)cc4)CC3)CC2)cc1 under Potency: inactive

Source: PubChem BioAssay AID743255 (National Center for Advancing Translational Sciences (NCATS), 2014)
